In publication PMC9010760 one finds binding data, which are given here for three substances.

Chains of the proteins cited; added tags and fusions are not shown. Lines headed by an entry give the natural chain unless they say otherwise; changes in a name come on top. A line that says so, or that is headed by a name, gives the form on record, which may keep a tag or linker.
UniProt Q9HBA0: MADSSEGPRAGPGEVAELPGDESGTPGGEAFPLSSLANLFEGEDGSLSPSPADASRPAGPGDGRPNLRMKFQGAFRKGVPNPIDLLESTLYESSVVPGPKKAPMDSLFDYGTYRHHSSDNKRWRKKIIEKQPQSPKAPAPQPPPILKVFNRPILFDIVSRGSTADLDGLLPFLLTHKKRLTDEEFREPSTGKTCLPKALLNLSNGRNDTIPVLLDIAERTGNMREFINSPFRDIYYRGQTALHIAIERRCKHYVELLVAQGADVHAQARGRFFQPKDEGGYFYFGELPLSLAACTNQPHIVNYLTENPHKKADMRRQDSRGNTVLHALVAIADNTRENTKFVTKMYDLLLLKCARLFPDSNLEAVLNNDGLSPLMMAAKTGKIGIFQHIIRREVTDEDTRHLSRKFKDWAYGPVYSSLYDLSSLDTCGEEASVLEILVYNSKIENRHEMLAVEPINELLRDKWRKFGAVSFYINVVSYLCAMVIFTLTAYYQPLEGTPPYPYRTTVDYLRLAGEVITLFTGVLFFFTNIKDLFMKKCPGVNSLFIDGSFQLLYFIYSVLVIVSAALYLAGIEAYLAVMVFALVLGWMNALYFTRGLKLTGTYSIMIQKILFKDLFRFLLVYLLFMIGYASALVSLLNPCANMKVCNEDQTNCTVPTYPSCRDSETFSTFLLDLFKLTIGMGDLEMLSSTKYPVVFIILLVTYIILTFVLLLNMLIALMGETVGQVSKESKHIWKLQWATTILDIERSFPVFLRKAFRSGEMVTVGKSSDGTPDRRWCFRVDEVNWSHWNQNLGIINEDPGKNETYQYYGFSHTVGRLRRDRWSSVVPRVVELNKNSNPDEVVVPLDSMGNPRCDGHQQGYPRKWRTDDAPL
TRPV4 5K-IDR mutant (Lys 77, 101, 130, 136 and 147 to arginine) (Q9HBA0, form named): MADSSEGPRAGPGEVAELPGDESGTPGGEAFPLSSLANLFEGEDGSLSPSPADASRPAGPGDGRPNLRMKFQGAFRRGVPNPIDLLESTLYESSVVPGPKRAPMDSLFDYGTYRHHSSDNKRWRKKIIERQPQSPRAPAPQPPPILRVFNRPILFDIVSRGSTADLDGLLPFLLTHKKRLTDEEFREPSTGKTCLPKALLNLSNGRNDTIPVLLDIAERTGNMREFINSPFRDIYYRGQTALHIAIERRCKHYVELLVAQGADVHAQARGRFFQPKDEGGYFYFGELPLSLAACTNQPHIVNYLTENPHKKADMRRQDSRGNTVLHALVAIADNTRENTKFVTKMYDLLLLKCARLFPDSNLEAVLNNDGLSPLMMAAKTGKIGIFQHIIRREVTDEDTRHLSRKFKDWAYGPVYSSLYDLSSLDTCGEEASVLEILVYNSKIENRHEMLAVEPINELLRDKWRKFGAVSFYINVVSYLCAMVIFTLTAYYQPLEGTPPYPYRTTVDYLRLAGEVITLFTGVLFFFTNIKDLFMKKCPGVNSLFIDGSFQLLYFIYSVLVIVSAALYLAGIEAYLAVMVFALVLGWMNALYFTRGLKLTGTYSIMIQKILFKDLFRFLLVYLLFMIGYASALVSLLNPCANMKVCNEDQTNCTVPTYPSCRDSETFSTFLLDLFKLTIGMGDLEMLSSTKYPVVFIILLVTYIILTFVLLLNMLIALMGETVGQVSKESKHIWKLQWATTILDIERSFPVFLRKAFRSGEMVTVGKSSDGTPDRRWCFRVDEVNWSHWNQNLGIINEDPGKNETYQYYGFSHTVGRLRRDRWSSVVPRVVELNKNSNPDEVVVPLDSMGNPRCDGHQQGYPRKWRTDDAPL
N-terminally Myc-tagged ITCH (Q96J02-2, form named): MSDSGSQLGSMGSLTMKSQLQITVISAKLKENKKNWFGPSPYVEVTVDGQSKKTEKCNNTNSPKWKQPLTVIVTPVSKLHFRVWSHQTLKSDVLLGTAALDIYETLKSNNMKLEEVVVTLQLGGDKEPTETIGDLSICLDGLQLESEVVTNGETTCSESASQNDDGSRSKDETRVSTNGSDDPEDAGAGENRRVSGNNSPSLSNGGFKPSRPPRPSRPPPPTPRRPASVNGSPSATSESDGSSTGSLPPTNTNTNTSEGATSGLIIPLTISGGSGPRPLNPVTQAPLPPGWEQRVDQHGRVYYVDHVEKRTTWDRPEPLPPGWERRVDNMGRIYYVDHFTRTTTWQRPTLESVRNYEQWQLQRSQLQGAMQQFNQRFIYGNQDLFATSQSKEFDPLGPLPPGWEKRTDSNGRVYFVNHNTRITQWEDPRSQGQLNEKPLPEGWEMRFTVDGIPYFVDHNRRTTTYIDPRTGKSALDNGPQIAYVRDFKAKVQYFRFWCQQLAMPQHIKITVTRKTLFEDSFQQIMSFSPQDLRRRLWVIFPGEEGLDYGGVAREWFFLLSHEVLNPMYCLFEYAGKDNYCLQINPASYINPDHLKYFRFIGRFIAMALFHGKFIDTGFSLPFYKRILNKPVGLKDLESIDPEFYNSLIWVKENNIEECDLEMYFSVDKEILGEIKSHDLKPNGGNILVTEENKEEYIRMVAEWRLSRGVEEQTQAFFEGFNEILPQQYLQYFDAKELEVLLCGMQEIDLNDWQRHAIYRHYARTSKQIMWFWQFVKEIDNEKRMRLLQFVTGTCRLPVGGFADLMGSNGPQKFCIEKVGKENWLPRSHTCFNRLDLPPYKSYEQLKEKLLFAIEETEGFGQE
N-terminally Myc-tagged ITCH C830A (catalytically inactive) (Q96J02-2, form named): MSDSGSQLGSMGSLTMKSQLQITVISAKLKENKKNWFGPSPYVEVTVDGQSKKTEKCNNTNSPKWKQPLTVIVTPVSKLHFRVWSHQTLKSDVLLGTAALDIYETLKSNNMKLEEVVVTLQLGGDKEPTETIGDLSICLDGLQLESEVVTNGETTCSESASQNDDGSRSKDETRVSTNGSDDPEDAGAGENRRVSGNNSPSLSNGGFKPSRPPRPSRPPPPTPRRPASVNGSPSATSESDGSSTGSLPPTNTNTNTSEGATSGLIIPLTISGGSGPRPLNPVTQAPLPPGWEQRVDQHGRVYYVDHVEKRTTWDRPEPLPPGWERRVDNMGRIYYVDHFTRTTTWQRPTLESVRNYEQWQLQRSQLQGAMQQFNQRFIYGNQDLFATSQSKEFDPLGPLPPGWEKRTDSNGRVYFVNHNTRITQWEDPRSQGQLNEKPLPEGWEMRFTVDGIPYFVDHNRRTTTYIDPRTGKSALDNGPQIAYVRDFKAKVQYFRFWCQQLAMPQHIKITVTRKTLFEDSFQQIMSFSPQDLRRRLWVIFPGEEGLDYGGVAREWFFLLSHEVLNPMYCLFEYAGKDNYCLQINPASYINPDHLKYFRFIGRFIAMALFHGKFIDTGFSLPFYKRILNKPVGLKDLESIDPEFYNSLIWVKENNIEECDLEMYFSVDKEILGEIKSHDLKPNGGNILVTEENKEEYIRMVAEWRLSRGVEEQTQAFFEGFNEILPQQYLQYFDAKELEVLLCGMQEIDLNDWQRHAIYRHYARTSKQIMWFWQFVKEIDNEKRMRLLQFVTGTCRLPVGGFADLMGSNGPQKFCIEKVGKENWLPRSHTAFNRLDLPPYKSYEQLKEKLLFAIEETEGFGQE
UniProt P61586: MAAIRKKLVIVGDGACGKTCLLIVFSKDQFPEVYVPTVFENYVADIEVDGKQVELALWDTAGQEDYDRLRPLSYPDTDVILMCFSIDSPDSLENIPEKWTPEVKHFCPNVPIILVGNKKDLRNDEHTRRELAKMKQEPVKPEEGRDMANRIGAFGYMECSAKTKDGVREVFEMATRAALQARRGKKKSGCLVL

No constants are given. Whether binding was seen depends on the method and setting. Binding seen in cells or lysates may run through a third protein. Some results given as binding are weak or reduced against the parent protein; the word gives no strength.

The target in test [1] is C-terminally FLAG-tagged TRPV4 (transient receptor potential vanilloid 4), WT (human) (UniProt Q9HBA0). Put plainly: co-IP; HEK293T cells cotransfected with TRPV4 (WT or mutant) and Myc-tagged E3 ligase; lysed 24 h post-transfection in RIPA buffer with protease/phosphatase inhibitors and PR-619; supernatant incubated 1 h at 4 °C with Dynabeads Protein G preconjugated with anti-FLAG M2 antibody; washed with 0.2% Tween-20 in PBS; Western blot. (In general: A western blot detects proteins with antibodies after separation by electrophoresis.)

For test [2], the target named is TRPV4 5K-IDR mutant (Lys 77, 101, 130, 136 and 147 to arginine) (human) (UniProt Q9HBA0). Nature of the test: co-IP; co-IP of PACSIN1 or RhoA with WT and K>R mutant TRPV4 (Fig. S5, H-J); cells, antibody and conditions not stated for this experiment in the text shown.
Test [3] deals with C-terminally FLAG-tagged TRPV4 (transient receptor potential vanilloid 4), WT (human) (UniProt Q9HBA0). The description is as above.

Turning to “N-terminally Myc-tagged ITCH (from UniProt Q96J02-2 1-862) (enzyme)”, the binding entry in test [1] was “binds”.

As for “N-terminally Myc-tagged ITCH C830A (catalytically inactive) (from UniProt Q96J02-2 1-862) (enzyme)”, the binding entry in test [1] is given as “binds”.

RhoA-Myc (from UniProt P61586 1-193): the binding result in test [2] and in test [3] was “binds” each time.
